The target of this experiment is T1, hepatocyte nuclear factor 4α (HNF4α) (human (endogenous in HepG2)) (UniProt P41235).
T1 sequence: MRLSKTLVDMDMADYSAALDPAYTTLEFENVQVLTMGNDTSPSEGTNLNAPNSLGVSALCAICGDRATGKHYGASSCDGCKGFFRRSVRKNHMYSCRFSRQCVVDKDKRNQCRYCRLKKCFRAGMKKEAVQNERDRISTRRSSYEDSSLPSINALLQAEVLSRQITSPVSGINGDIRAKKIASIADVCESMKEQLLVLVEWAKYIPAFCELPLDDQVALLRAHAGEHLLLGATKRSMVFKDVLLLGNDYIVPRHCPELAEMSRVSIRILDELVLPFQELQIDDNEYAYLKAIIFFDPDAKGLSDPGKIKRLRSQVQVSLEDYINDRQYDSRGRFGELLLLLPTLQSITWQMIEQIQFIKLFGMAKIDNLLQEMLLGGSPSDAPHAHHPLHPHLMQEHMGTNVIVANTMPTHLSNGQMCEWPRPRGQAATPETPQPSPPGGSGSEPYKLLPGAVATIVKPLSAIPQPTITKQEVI
The experiment in a line: co-IP; HNF4α immunoprecipitated with anti-HNF4α antibody (or IgG control) and protein A agarose from lysates of HepG2 cells infected with adenovirus for HA-lipin 1β or lipin 1(LXXFF); NP40 lysis buffer (20 mM Tris HCl, 100 mM NaCl, 0.5% NP40, 0.5 mM EDTA); blot with anti-HA.

These are yes or no findings as the source states them, for the method shown. In cells and extracts the contact can be indirect. Some results given as binding are weak or reduced against the parent protein; the word gives no strength. Tags and fused reporters may be left off the sequences shown.

B1: lipin 1β (924 amino acid form of mouse lipin 1), HA-tagged (natural protein, UniProt Q91ZP3 1-924, looked up)
chain: MNYVGQLAGQVFVTVKELYKGLNPATLSGCIDIIVIRQPNGSLQCSPFHVRFGKMGVLRSREKVVDIEINGESVDLHMKLGDNGEAFFVQETDNDQEIIPMYLATSPILSEGAARMESQLKRNSVDRIRCLDPTTAAQGLPPSDTPSTGSLGKKRRKRRRKAQLDNLKRDDNVNSSEDEDMFPIEMSSDEDTAPMDGSRTLPNDVPPFQDDIPKENFPSISTHPQSASYPSSDREWSPSPSSLVDCQRTPPHLAEGVLSSSCPLQSCHFHASESPSGSRPSTPKSDSELVSKSADRLTPKNNLEMLWLWGELPQAAKSSSPHKMKESSPLGSRKTPDKMNFQAIHSESSDTFSDQSPTMARGLLIHQSKAQTEMQFVNEEDLESLGAAAPPSPVAEELKAPYPNTAQSSSKTDSPSRKKDKRSRHLGADGVYLDDLTDMDPEVAALYFPKNGDPGGLPKQASDNGARSANQSPQSVGGSGIDSGVESTSDSLRDLPSIAISLCGGLSDHREITKDAFLEQAVSYQQFADNPAIIDDPNLVVKVGNKYYNWTTAAPLLLAMQAFQKPLPKATVESIMRDKMPKKGGRWWFSWRGRNATIKEESKPEQCLTGKGHNTGEQPAQLGLATRIKHESSSSDEEHAAAKPSGSSHLSLLSNVSYKKTLRLTSEQLKSLKLKNGPNDVVFSVTTQYQGTCRCEGTIYLWNWDDKVIISDIDGTITRSDTLGHILPTLGKDWTHQGIAKLYHKVSQNGYKFLYCSARAIGMADMTRGYLHWVNERGTVLPQGPLLLSPSSLFSALHREVIEKKPEKFKVQCLTDIKNLFFPNTEPFYAAFGNRPADVYSYKQVGVSLNRIFTVNPKGELVQEHAKTNISSYVRLCEVVDHVFPLLKRSHSCDFPCSDTFSNFTFWREPLPPFENQDMHSASA
Take B1: the binding entry is “binds”.

Values taken from paper PMC3517414, “Complex Interplay between the Lipin 1 and the Hepatocyte Nuclear Factor 4 α (HNF4α) Pathways to Regulate Liver Lipid Metabolism” (PLoS ONE, 2012).
